Results deposited as PubChem BioAssay AID1224826 (NIAID, 2016).
The whole screen tested about 17,000 reagents; below is a random part of them. In the full data, about 1,110 (6.6%) were called active. 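Active means lowered or raised reporter signal; replicate intensities are raw and not normalised per plate.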 A number with no mark means an inactive call. Further read-outs or replicates are left out here.

Screen: 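Regulators of Tlr4 signalling leading to Tnf-alpha expression in macrophages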 (primary screen)
System: RAW264.7 G9 macrophages from mouse bearing reporters for p65 (GFP) and the Tnf promoter (mCherry)
Knock-down reagent: siRNA pool against mouse genes, 100 nM
Time to read-out: 16 h of LPS stimulation, after 2 days of siRNA transfection
Treatment: bacterial lipopolysaccharide (Salmonella minnesota R595), 10 ng/ml
Read-out: 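Imaged Tnf reporter mCherry in nuclei, minus background, normalised per plate to the median and expressed as robust z-scores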
Direction: Tnf reporter robust z-score: higher = stronger Tnf promoter reporter signal after LPS
Rule for the call: 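Called active when robust z-score is at most -1.3, matching the median of the Tlr4 knock-down control, or over 3; control wells and wells with under 50 cells never active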
Calls: active = Tnf reporter clearly lowered or raised; inactive = no clear change in Tnf reporter

| gene | Tnf reporter robust z-score | fewer than 50 cells in well |
| --- | --- | --- |
| Mycs (myc-like oncogene, s-myc protein) | -0.78 | enough cells in well |
| Synpo2l (synaptopodin 2-like) | 1.99 | enough cells in well |
| Tbc1d14 (TBC1 domain family, member 14) | -1.42 (active) | enough cells in well |
| Phf10 (PHD finger protein 10) | -0.51 | enough cells in well |
| Ranbp10 (RAN binding protein 10) | -0.27 | enough cells in well |
| Gal (galanin and GMAP prepropeptide) | -1.32 (active) | enough cells in well |
| Nlgn2 (neuroligin 2) | 0.81 | enough cells in well |
| Gucy1a1 (guanylate cyclase 1, soluble, alpha 1) | -0.1 | enough cells in well |
| Lrrc42 (leucine rich repeat containing 42) | 1.69 | enough cells in well |
| Gpr3 (G-protein coupled receptor 3) | – | fewer than 50 cells per well; well left out of calls |
| Eprs1 (glutamyl-prolyl-tRNA synthetase 1) | -0.8 | enough cells in well |
| Uqcr10 (ubiquinol-cytochrome c reductase, complex III subunit X) | 1.84 | enough cells in well |
| Ryk (receptor-like tyrosine kinase) | -0.91 | enough cells in well |
| Mrgprb3 (MAS-related GPR, member B3) | 0.1 | enough cells in well |
| Pold3 (polymerase (DNA-directed), delta 3, accessory subunit) | -1.93 (active) | enough cells in well |
| Calm1 (calmodulin 1) | -0.14 | enough cells in well |
| Fbxl4 (F-box and leucine-rich repeat protein 4) | -0.54 | enough cells in well |
| Dtd1 (D-tyrosyl-tRNA deacylase 1) | -1 | enough cells in well |
| Ccdc54 (coiled-coil domain containing 54) | -1.25 | enough cells in well |
| 2810032G03Rik (RIKEN cDNA 2810032G03 gene) | 3.98 (active) | enough cells in well |
| Pcdhb18 (protocadherin beta 18) | 0.06 | enough cells in well |
| Clca3a1 (chloride channel accessory 3A1) | 1.22 | enough cells in well |
| Mc3r (melanocortin 3 receptor) | -0.25 | enough cells in well |
| Pnn (pinin) | -0.35 | enough cells in well |
| Rrp1b (ribosomal RNA processing 1B) | – | fewer than 50 cells per well; well left out of calls |
| Dnajc7 (DnaJ heat shock protein family (Hsp40) member C7) | 0.37 | enough cells in well |
| Serpina9 | 0.42 | enough cells in well |
| Bsdc1 (BSD domain containing 1) | 1.86 | enough cells in well |

Reformatted: 7 of the entries above.
Gpr3 (G-protein coupled receptor 3) — fewer than 50 cells in well = fewer than 50 cells per well; well left out of calls
Eprs1 (glutamyl-prolyl-tRNA synthetase 1) — Tnf reporter robust z-score = -0.8; fewer than 50 cells in well = enough cells in well
Uqcr10 (ubiquinol-cytochrome c reductase, complex III subunit X) — Tnf reporter robust z-score = 1.84; fewer than 50 cells in well = enough cells in well
Ryk (receptor-like tyrosine kinase) — Tnf reporter robust z-score = -0.91; fewer than 50 cells in well = enough cells in well
Mrgprb3 (MAS-related GPR, member B3) — Tnf reporter robust z-score = 0.1; fewer than 50 cells in well = enough cells in well
Pold3 (polymerase (DNA-directed), delta 3, accessory subunit) — Tnf reporter robust z-score = -1.93 (active); fewer than 50 cells in well = enough cells in well
Calm1 (calmodulin 1) — Tnf reporter robust z-score = -0.14; fewer than 50 cells in well = enough cells in well

The results go on:
| gene | Tnf reporter robust z-score | fewer than 50 cells in well |
| --- | --- | --- |
| Emc9 (ER membrane protein complex subunit 9) | -1.12 | enough cells in well |
| Serpina1d (serine (or cysteine) peptidase inhibitor, clade A, member 1D) | -0.67 | enough cells in well |
| Tmem161a (transmembrane protein 161A) | 1.36 | enough cells in well |
| Nr0b2 (nuclear receptor subfamily 0, group B, member 2) | 0.06 | enough cells in well |
| Mt3 (metallothionein 3) | -0.06 | enough cells in well |
| Hyal2 (hyaluronoglucosaminidase 2) | -0.14 | enough cells in well |
| Cyp26a1 (cytochrome P450, family 26, subfamily a, polypeptide 1) | 0.67 | enough cells in well |
| Mtfr1 (mitochondrial fission regulator 1) | 0.88 | enough cells in well |
| Hoxc12 (homeobox C12) | -0.12 | enough cells in well |
| Tpd52 (tumor protein D52) | -0.38 | enough cells in well |
| Vmn1r27 (vomeronasal 1 receptor 27) | 4.05 (active) | enough cells in well |
| Nt5dc1 (5'-nucleotidase domain containing 1) | 0.04 | enough cells in well |
| Csn2 (casein beta) | -0.19 | enough cells in well |
| Nxpe4 (neurexophilin and PC-esterase domain family, member 4) | 2.97 | enough cells in well |
| B3gnt8 | 1.52 | enough cells in well |
| Wdr72 (WD repeat domain 72) | 1.18 | enough cells in well |
| Pard3b (par-3 family cell polarity regulator beta) | 0.79 | enough cells in well |
| S100a7a (S100 calcium binding protein A7A) | -0.72 | enough cells in well |
| Cd19 (CD19 antigen) | -1.15 | enough cells in well |
| Wdhd1 (WD repeat and HMG-box DNA binding protein 1) | -0.78 | enough cells in well |
| Pex5 (peroxisomal biogenesis factor 5) | -0.19 | enough cells in well |
| Or2ag1 (olfactory receptor family 2 subfamily AG member 1) | -0.37 | enough cells in well |
| Large2 (LARGE xylosyl- and glucuronyltransferase 2) | -0.63 | enough cells in well |
| Kdm4b (lysine (K)-specific demethylase 4B) | -1.11 | enough cells in well |
| Btg4 (BTG anti-proliferation factor 4) | -0.91 | enough cells in well |
| Gnpnat1 (glucosamine-phosphate N-acetyltransferase 1) | -0.3 | enough cells in well |
| Rptor (regulatory associated protein of MTOR, complex 1) | -1.21 | enough cells in well |
| Vwc2l (von Willebrand factor C domain-containing protein 2-like) | 0.25 | enough cells in well |
| Psme2b (protease (prosome, macropain) activator subunit 2B) | – | fewer than 50 cells per well; well left out of calls |
| Eapp (E2F-associated phosphoprotein) | 0.52 | enough cells in well |
